This experiment addresses HA-tagged PDGFRβ (UniProt P09619). In words: co-IP; HEK293T transfected with HA-PDGFRβ and mJAK2 wildtype or kinase dead, 24 h, then MG132, pepstatin and leupeptin for 4 h; lysed in IP buffer (50 mM Tris-HCl pH 7.4, 300 mM NaCl, 5 mM EDTA, 1% Nonidet P40); immunoprecipitated with HA-specific antibody overnight at 4 °C, Protein A/G Dynabeads; western blot.

Chains of the proteins cited; added tags and fusions are not shown. Lines headed by an entry give the natural chain unless they say otherwise; changes in a name come on top.
UniProt Q62120: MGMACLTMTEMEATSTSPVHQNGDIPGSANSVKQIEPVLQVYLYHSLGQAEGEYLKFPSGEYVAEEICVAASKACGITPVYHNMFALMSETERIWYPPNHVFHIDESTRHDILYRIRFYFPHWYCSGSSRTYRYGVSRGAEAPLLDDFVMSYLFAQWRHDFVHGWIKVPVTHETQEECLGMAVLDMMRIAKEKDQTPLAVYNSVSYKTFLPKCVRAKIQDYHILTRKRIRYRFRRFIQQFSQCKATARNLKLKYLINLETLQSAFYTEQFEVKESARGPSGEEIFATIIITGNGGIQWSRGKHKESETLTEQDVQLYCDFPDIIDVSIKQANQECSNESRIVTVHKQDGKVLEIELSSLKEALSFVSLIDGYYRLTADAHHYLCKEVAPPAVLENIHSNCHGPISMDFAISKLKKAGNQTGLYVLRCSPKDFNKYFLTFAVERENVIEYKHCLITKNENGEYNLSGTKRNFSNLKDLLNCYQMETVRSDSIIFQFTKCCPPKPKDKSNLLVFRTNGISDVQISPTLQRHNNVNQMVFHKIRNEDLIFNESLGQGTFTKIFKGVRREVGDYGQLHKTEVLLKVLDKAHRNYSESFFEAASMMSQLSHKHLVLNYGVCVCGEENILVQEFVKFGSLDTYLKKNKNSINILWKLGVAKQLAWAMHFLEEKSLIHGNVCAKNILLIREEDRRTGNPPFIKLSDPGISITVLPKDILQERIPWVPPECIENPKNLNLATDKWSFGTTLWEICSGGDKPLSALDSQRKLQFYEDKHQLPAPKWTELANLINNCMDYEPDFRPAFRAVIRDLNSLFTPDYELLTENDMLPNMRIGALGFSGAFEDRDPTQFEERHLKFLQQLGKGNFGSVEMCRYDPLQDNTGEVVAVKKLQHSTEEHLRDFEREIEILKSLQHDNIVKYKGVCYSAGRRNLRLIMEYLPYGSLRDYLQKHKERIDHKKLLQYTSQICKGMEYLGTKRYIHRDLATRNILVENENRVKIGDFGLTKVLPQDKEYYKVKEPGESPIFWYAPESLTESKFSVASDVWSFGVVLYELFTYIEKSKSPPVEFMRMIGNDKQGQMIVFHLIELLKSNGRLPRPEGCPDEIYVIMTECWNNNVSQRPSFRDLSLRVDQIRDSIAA

Results are given in words; binding and its absence hold for the method and conditions named. Binding seen in cells or lysates may run through a third protein. Binding can be weak; no strength is given.

Take “JAK2 kinase dead (from UniProt Q62120) (enzyme)”: the binding result is recorded as “binds”.

The record behind these values is publication PMC6379987.
